## Primary screen of a compound library

Data taken from ChEMBL document CHEMBL3988442, “University of Dundee, Small-Polar-MMV Screening Library” (2021).

A: 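Assay on Mycobacterium tuberculosis, filed only as a heat shock assay from Cornell; the read-out is not stated. The concentration is filed as 10 mM, unlikely as a test dose, so the dose is not known. The record gives no direction; compounds that gave an IC50 in retests scored well above the rest, so higher reads as stronger inhibition. About 69,000 compounds were tested under these conditions; 1.4% (about 930) showed 50% or more at least once.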
B: 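Whole-cell assay for inhibitors of Mycobacterium tuberculosis growth, labelled Cornell in the record; the read-out is not stated. The concentration is filed as 10 mM, unlikely as a test dose, so the dose is not known. Higher means stronger inhibition (inferred from two other growth screens of the library). About 53,000 compounds were tested under these conditions; 1.7% (about 900) showed 50% or more at least once.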

Each number is a percent effect as filed.
The record does not define 0% and 100%; most values in the screen are far below 50% and negative numbers occur (in some assays of this library far below -100).
This is an unselected part of the compounds tested.
A dash means the value is not listed here; it may have been measured.

SMILES | A | B
O=C(O)CCc1cc2n(n1)CCCN(C(=O)c1cc3ccccc3s1)C2 | -10.16 | 4.263
COc1cc(CNC(=O)COC2CCCC2)ccc1O | 25.04 | 4.862
O=C(CSCc1ccncc1)NCc1csc(Br)c1 | 0.2612 | -
Cn1cc(C2=NOC(C(=O)NC3(c4ccccc4F)CCCC3)C2)cn1 (configuration not stated) | -26.18 | -19.57
Cc1csc(N2CCCN(C(=O)c3cnns3)CC2)n1 | -21.76 | -
COCc1noc(CN2CC(=O)N(C)c3ccccc3C2=O)n1 | -14.83 | -
Cc1nc(C)n(C2CCCN(C(=O)c3ccc(F)c(F)c3)C2)n1 (configuration not stated) | -11.18 | -
COc1ccc(C2CC(=O)Nc3c2nc2n3CCCC2)cc1O (configuration not stated) | -17.03 | 24.01
Cn1ccc(C(=O)N2CCCC2c2cc(CCO)[nH]n2)n1 (configuration not stated) | 14.39 | -19.39
CC1=CC(C)(C)N(CN2C(=O)c3ccccc3C2=O)c2ccccc21 | -29.51 | -
[H][C@]12CCCCN1CCC[C@@]2(O)CN1CCN(c2cc(C)ccn2)CC1 | -8.155 | 12.05
CCN(CC1CCCN(CCc2cccc(OC)c2)C1)C(=O)CCSC (configuration not stated) | -14.85 | -29.92
O=C(Cc1noc2ccccc12)N1CCCC1c1noc(C2CC2)n1 (configuration not stated) | 10.06 | 0.3643
O=C(O)C(F)(F)F.O=C(O)C(F)(F)F.[H][C@@]12CCN(Cc3cccc(C#N)c3)[C@@]1([H])CC(=O)N2Cc1ccncc1 | 1.363 | 31.51
O=C(C(CNCc1ccccc1O)c1ccccc1)N1CCOCC1 (configuration not stated) | -27.23 | 8.342
Cc1cnn(CC2CCCN2Cc2nnc(Cc3ccccc3)o2)c1 (configuration not stated) | 10.21 | -9.555
CN(Cc1cnn(C)c1)C(=O)C1CCCN1Cc1ccccn1 (configuration not stated) | -15.95 | -
Cc1ncc(CNC(=O)NC2CCN(C3CCCC3)CC2)s1 | -22.88 | 6.645
O=C(c1cc(COc2ccc3c(c2)OCO3)[nH]n1)N1CCSCC1 | 62.66 | 102
COc1cc(CNCC(O)c2ccc(C)cc2)cc2c1OCCO2.Cl (configuration not stated) | 2.187 | 15.01
COc1ccccc1C1SCC(=O)Nc2c1c(=O)[nH]n2C1CCCCC1 (configuration not stated) | -14.2 | 11.01
Cc1noc(C)c1CS(=O)(=O)CC(=O)N1c2ccccc2CC1C (configuration not stated) | -11.37 | -
COc1cc(CNC2CCCc3c2cnn3C)cc(OC)c1.Cl (configuration not stated) | 15.93 | 15.22
Cc1c(Cl)c(C(=O)NCc2ccc(F)cc2)nn1C | -1.071 | 31.87
CS(=O)(=O)N1CCC(C(=O)Nc2nnc(C(F)(F)F)[nH]2)CC1 | -20.65 | -31.15
CCN(CCS(=O)(=O)CC)CC1CCCO1 (configuration not stated) | 12.82 | 5.379
O=C(O)C(F)(F)F.[H][C@]12CCN(C(=O)c3ccccc3)CC[C@@]1([H])S(=O)(=O)CCN2C | -22.39 | 7.375
O=C(O)C(F)(F)F.O=C(O)C(F)(F)F.O=C(O)C(F)(F)F.[H][C@@]12COC[C@]1(COc1ccccn1)CN(Cc1cccnc1OC)C2 | -38.05 | 3.611
CNc1nc2c(c(C(=O)N3CCCC3)n1)CN(C(=O)C1CCCC1)CC2 | -14.24 | -29.47
CC(=O)N1CCCC2(C1)CN(c1ncc(C)cn1)CCO2.O=C(O)C(F)(F)F (configuration not stated) | -5.152 | 17.12
CC(=O)c1ccc(NC(=O)NC(C)c2ccc3c(c2)CC(=O)N3)cc1 (configuration not stated) | 19.84 | -10.63
CCc1nc(CN2CCN(C(=O)C3CCCCC3)CC2)cs1 | 22.9 | 17.81
COc1ccc(C(=O)NC2CC2)c(OC)c1 | 1.449 | 29.69
O=C(O)C(F)(F)F.[H][C@@]12COC[C@]1([H])[C@H](NC(=O)C1CCC1)CN2Cc1cccs1 | -12.94 | 4.496
CCCSCC(=O)N1CCCC(c2nccn2Cc2ccncc2)C1 (configuration not stated) | -21.47 | -3.432
Cc1c(C(C)Nc2ncnc3sccc23)cnn1C (configuration not stated) | -1.45 | 23.57
c1nc(CSc2nnc(C3CC3)s2)cs1 | -18.54 | -
CC(C)COc1ccc(C2SCC(=O)Nc3c2c(=O)[nH]n3C(C)C)cc1 (configuration not stated) | 4.108 | -
COC(=O)CCN(CC1CCCO1)C(=O)Cc1ccc(OC)c(OC)c1 (configuration not stated) | -26.02 | 10.06
O=C(O)C(F)(F)F.O=C(O)C(F)(F)F.[H][C@@]12C[C@@H](OCC)CN1CCN(Cc1ccc(C)o1)C2 | -3.919 | 9.183
Cc1cnn(CC2CCCCN2Cc2cnc(C)s2)c1 (configuration not stated) | 18.92 | -
CC(=O)Nc1nc(C(=O)NCc2ccc(N3CCOCC3)nc2)cs1 | -15.82 | -23.39
COc1cccc2c1OCCCN(c1nc(N)nc3c1CCNC3)C2 | 6.821 | -4.983
COCCN1CCC2(CC1)CN(C(=O)c1ccccc1)CCO2.O=C(O)C(F)(F)F | -8.433 | 17.47
OC1(CNCCc2csc(-c3ccncc3)n2)CCCNC1 (configuration not stated) | -28.04 | 21.52
CSCC(C)N(C)C(=O)CN1CCN(c2ccccn2)CC1 (configuration not stated) | -8.884 | -
CC(C)c1nc(CN(CC(N)=O)C(C)C)cs1 | -12.18 | -
Cc1oc(C)c(C(=O)NCc2ccccc2S(=O)(=O)N(C)C)c1C | 9.251 | -
COCCN(Cc1ccc(F)cc1Cl)C(=O)c1cccc[n+]1[O-] | 8.945 | -5.389
CCN(CC)S(=O)(=O)N1CCCC(c2ccc(C(=O)O)cc2)C1 (configuration not stated) | -1.261 | -
OCc1cc2ccccc2nc1NCC1CCN(CC(F)(F)F)C1 (configuration not stated) | -42.98 | 5.709